The other results are listed elsewhere or left out. Most values lie at the level of the controls, where differences are scatter.

In one test the test system is ppGalNAc-T3 sensor. Put plainly: T3 sensor activation Q score (MG/GFP ratio z-score vs DMSO controls) (SD units); higher = more sensor activation (inhibition of ppGalNAc-T3 glycosylation). As to conditions: HEK293 sensor cells; 10 µM; 6 h. The method, then: (§1)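 Cells were treated with compound at 10 uM for 6 h, then MG/GFP ratio was read by flow cytometry (10,000 cells per well, duplicate wells). Q = (R - R_neg)/SD_neg relative to DMSO vehicle controls; the signal rises when the glycosyltransferase is inhibited.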

Another test relates to ppGalNAc-T2 sensor. Put plainly: T2 sensor activation Q score (MG/GFP ratio z-score vs DMSO controls) (SD units); higher = more sensor activation (inhibition of ppGalNAc-T2 glycosylation). The following applies: HEK293 sensor cells; 10 µM; 6 h. The method, then:
as §1

With `CC(=O)Nc1ccc(-c2nc3ccc(C)cc3s2)cc1`, in the test with ppGalNAc-T3 sensor, the “T3 sensor activation Q score” value is 0.365. The “T2 sensor activation Q score” value in the test with ppGalNAc-T2 sensor was -0.85.

As to `CSc1ccc(CN2CCCN(C)CC2)cc1`, the “T3 sensor activation Q score” value in the test on ppGalNAc-T3 sensor came to 0.1. For the same molecule, the “T2 sensor activation Q score” value with ppGalNAc-T2 sensor was determined as 0.405.

In the case of `O=C(CCN1C(=O)c2ccccc2C1=O)N1CCCCCC1`, the “T3 sensor activation Q score” value with ppGalNAc-T3 sensor is 1.92. Further, the “T2 sensor activation Q score” value in the test on ppGalNAc-T2 sensor was 0.875.

Regarding `COc1cc2c(cc1OC)CN(Cc1ccccc1F)CC2`, in the test on ppGalNAc-T3 sensor, the “T3 sensor activation Q score” value came out at 0.43. The “T2 sensor activation Q score” value in the test with ppGalNAc-T2 sensor was -0.015.

In the case of `Cc1ccsc1CN1CCN(c2cccc(C)c2C)CC1`, in the test on ppGalNAc-T3 sensor, the “T3 sensor activation Q score” value is -0.6. In addition, in the test with ppGalNAc-T2 sensor, the “T2 sensor activation Q score” value is -0.37.

The values above are taken from the supplement of paper PMC5407854, “Inhibitor of ppGalNAc-T3-mediated O-glycosylation blocks cancer cell invasiveness and lowers FGF23 levels” (eLife, 2017).
